Data from PubChem BioAssay AID493014 (National Center for Advancing Translational Sciences (NCATS), 2011).
This is one part of the list. Further columns of the screen follow, without active or inactive calls. Compounds called inactive in the main read-out are mostly missing here. Potencies come from curve fits of mixed quality, noted in brackets.

Assay: qHTS Assay to Find Inhibitors of Chronic Active B-Cell Receptor Signaling
Conditions: ABC-DLBCL IkBa-CBG/CBR reporter, luminescence ratio (green luciferase fused to IkBa over red control in TMD8 lymphoma cells), 4 h
How it was run: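 TMD8 human ABC-DLBCL cells with doxycycline-inducible IκBα–green luciferase fusion and unfused red luciferase, in 0.5% FBS medium; compounds up to 46 uM, 4 h at 37C. Green/red luminescence ratio, filter-overlap corrected, fitted to concentration-response curves.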

[1] = measured here: CBR red luminescence, cell number
[2] = measured here: IkBa-CBG green luminescence

For COc1cccc(Nc2ccccc2C(=O)O)c1, the AC50 [1] was 1.12 µM [rising, full curve, poor fit].

For Cc1cc(C(=O)N/N=C/c2cccnc2)cs1, the AC50 [1] was 16.4 µM [falling, single point].

In the case of COc1ccc(C2NC(=O)c3sc4nc(C)c(C(C)=O)c(-c5ccc(Cl)cc5)c4c3N2)cc1 (stereo not drawn), the AC50 [1] is reported as 8.91 µM [rising, partial curve, poor fit].

For COc1ccc(C(=O)NC(=S)Nc2ccc3oc(=O)ccc3c2)cc1, the AC50 [1] was 18.4 µM [rising, partial curve].

For COc1ccccc1NS(=O)(=O)c1cccc(NC(=O)c2sc3ccccc3c2Cl)c1, the AC50 [1] was 6.31 µM [falling, partial curve, poor fit].

In the case of CCc1cccc(NC(=O)c2cccc3c2C(=O)N(CC2CCCO2)C3)c1 (stereo not drawn), the AC50 [2] is reported as 15.8 µM [rising, partial curve, poor fit].

For CCCNc1nc(NCC)nc(OC)n1, the AC50 [1] was 12.6 µM [rising, partial curve].

With COc1cccc(/C=N/NC(=O)c2cc3c(OC)c(OC)ccc3[nH]2)c1OC the AC50 [2] was 20.6 µM [falling, partial curve, poor fit].

For COc1cc(C=O)cc(Br)c1OCC(N)=O, the AC50 [1] was 35.5 µM [falling, single point].

For CCc1ccc(-n2c(SCc3ccccc3F)nc3[nH]ncc3c2=O)cc1, the AC50 [1] was 15.8 µM [falling, single point].

For CC(C)OCCCNC(=O)C1CCC(CNS(=O)(=O)c2ccccc2)CC1 (stereo not drawn), the AC50 [1] was 11.6 µM [rising, partial curve, poor fit].

With COc1cc(OC)cc(-c2nc(-c3ccccc3OC)no2)c1 the AC50 [1] was 1.84 µM [falling, full curve].

In the case of N#C/C(=C\c1c(N(Cc2ccccc2)Cc2ccccc2)nc2ccccn2c1=O)C(N)=O, the AC50 [1] is reported as 32.6 µM [falling, partial curve, poor fit].

For O=C(Nc1cccc(Cl)c1N1CCCC1)c1ccco1, the AC50 [1] was 10 µM [rising, partial curve, poor fit].

For Fc1ccc(C2=NN(c3ccccc3)C(c3ccco3)C2)cc1 (stereo not drawn), the AC50 [1] was 12.6 µM [rising, partial curve, poor fit].

For CCC(C)NC(=O)c1ccc2c(Cl)c3c(nc2c1)CCC3 (stereo not drawn), the AC50 [1] was 15.8 µM [falling, partial curve, poor fit].

For C[C@]12C[C@H](O)[C@H]3[C@@H](CCC4=CC(=O)CC[C@@]43C)[C@@H]1CC[C@@H]2C(=O)CO, the AC50 [1] was 0.1 µM [rising, full curve, poor fit].

With COc1ccc(OC)c(NC(=O)C2CCCN(S(=O)(=O)c3cccc4cccnc34)C2)c1 (stereo not drawn) the AC50 [1] was 10 µM [rising, partial curve].

With C=CCn1c(CNC(=O)c2ccco2)nnc1SCC(=O)c1ccccc1 the AC50 [1] was 35.5 µM [falling, single point].

In the case of CC1CCCCN1C(=O)c1cccc(NC2=C(Cl)C(=O)N(Cc3ccccc3)C2=O)c1 (stereo not drawn), the AC50 [1] is reported as 25.9 µM [falling, partial curve, poor fit].

In the case of Cc1ccc(C)c(N(CC(=O)NN=C2CCCCCCC2)S(C)(=O)=O)c1, the AC50 [1] is reported as 3.16 µM [falling, partial curve, poor fit].

In the case of CCOC(=O)c1[nH]c2ccc(Br)cc2c1NC(=O)CCN1CCOCC1, the AC50 [1] is reported as 6.31 µM [rising, partial curve, poor fit].

With CCOC(=O)c1cc(-c2ccccc2)sc1NC(=O)CSc1nnc(N)s1 the AC50 [1] was 35.5 µM [rising, single point].

For Cn1ccc(C(=O)Nc2ccc(Br)cc2Br)n1, the AC50 [1] was 5.8 µM [rising, partial curve].

In the case of CC(=O)N1CCN(c2ccccc2NC(=O)c2ccc3ccccc3c2)CC1, the AC50 [1] is reported as 7.94 µM [falling, single point].

In the case of CCc1ccc(CCC(=O)Nc2ccc(Br)cc2)o1, the AC50 [1] is reported as 35.5 µM [rising, single point].

In the case of COCCNC(=O)CN(C(=O)CCC(=O)Nc1ccccn1)c1ccccc1F, the AC50 [1] is reported as 11.2 µM [falling, partial curve, poor fit] and the AC50 [2] is reported as 12.6 µM [rising, partial curve, poor fit].

In the case of COc1ccc2c(C)cc(N3CCCCCC3)nc2c1, the AC50 [1] is reported as 5.01 µM [rising, partial curve, poor fit].

With Fc1cccc(Nc2nc3ccccc3n3nnnc23)c1 the AC50 [1] was 20.6 µM [falling, partial curve, poor fit].

For CCOc1ccc(OCc2cccc(C(=O)N(CC)CC)c2)cc1, the AC50 [1] was 14.1 µM [falling, single point].

With COc1cccc(NC(=O)NC2CCCCC2C)c1 (stereo not drawn) the AC50 [1] was 14.1 µM [falling, partial curve, poor fit].

With CN(c1ccccc1)P(=O)(N(C)c1ccccc1)N(C)c1ccccc1 the AC50 [1] was 17.8 µM [falling, single point] and the AC50 [2] was 22.4 µM [rising, partial curve, poor fit].

With Cc1ccc(NC(=O)Cn2c(=O)c(C)nc3ccccc32)cc1 the AC50 [1] was 17.8 µM [falling, single point].

In the case of CC(C)Cn1c(SCC(=O)NCc2ccc(Cl)cc2)nnc1-c1cccc(S(=O)(=O)N2CCOCC2)c1, the AC50 [1] is reported as 35.5 µM [falling, single point].

With CCOc1ccccc1N1CC(C(=O)NCCc2ccc(S(N)(=O)=O)cc2)CC1=O (stereo not drawn) the AC50 [1] was 0.461 µM [rising, partial curve, poor fit].

For CCC(C)Sc1nc2c(cnn2-c2ccccc2)c(=O)[nH]1 (stereo not drawn), the AC50 [1] was 2.31 µM [rising, partial curve].

With N#Cc1nc(Cc2cccc3ccccc23)oc1NCCN1CCOCC1 the AC50 [1] was 6.51 µM [falling, full curve, poor fit].

With Cc1ccsc1C(=O)OCC(=O)NCc1ccc(Cl)cc1 the AC50 [1] was 0.731 µM [rising, full curve].

In the case of O=C(N/N=C/c1cn(Cc2ccccc2)c2ccccc12)c1cccnc1, the AC50 [1] is reported as 8.2 µM [falling, partial curve].

In the case of CCC(=O)N1CCN(c2ccc(NC(=O)c3ccc([N+](=O)[O-])o3)cc2Cl)CC1, the AC50 [1] is reported as 22.4 µM [falling, partial curve, poor fit].

For CC(=O)N1N=C(c2ccc(C)cc2)CC1c1ccco1 (stereo not drawn), the AC50 [1] was 17.8 µM [rising, partial curve, poor fit].

With NC(=O)Nn1c(CCC(=O)O)ccc1-c1ccc(Cl)cc1 the AC50 [1] was 20 µM [falling, partial curve, poor fit].

With COC(=O)C1=C(O)/C(=C\c2cc(C)n(-c3ccc(F)cc3)c2C)N=C1C the AC50 [1] was 11.2 µM [falling, partial curve, poor fit].

With COc1cc2oc(=O)cc(-c3ccc(-c4ccc(O)cc4)cc3)c2c(OC)c1OC the AC50 [1] was 2.59 µM [rising, partial curve, poor fit].

For COc1ccccc1NC(=O)c1c(Nc2ccccc2F)sc(C(=O)Nc2cccc(Cl)c2)c1N, the AC50 [1] was 14.6 µM [falling, partial curve] and the AC50 [2] was 14.6 µM [rising, single point].

In the case of COc1ccccc1-c1ccc(SCC(=O)Nc2cc(C)on2)nn1, the AC50 [1] is reported as 35.5 µM [falling, single point] and the AC50 [2] is reported as 35.5 µM [rising, partial curve, poor fit].

For Cc1ccc(/C=C(\C#N)C(=O)Nc2cccc(C)n2)cc1, the AC50 [1] was 15.8 µM [rising, single point].

For CC1(C)Cc2ccccc2-c2nnc(SCc3ccccc3)n21, the AC50 [1] was 0.116 µM [rising, full curve].

For O=C(Nc1ncnc2c1ncn2C1OC(COC(=O)c2ccccc2)C(F)C1O)c1ccccc1 (stereo not drawn), the AC50 [1] was 7.08 µM [rising, partial curve, poor fit].

For CCn1cc(C(=O)OCC(=O)c2ccc(Cl)cc2)c(=O)c2ccc(C)nc21, the AC50 [1] was 35.5 µM [rising, single point].

For COc1ccc(C(=O)C2CCCN(C(=O)c3ccc(C(C)=O)s3)C2)c(C)c1 (stereo not drawn), the AC50 [1] was 17.8 µM [rising, partial curve, poor fit].

For Cc1cc(C)nc(NC(=O)c2ccc(COc3ccccc3Cl)cc2)c1, the AC50 [1] was 7.94 µM [falling, partial curve].

For Cc1ccn2c(CNCCn3cccn3)c(C(=O)N3CCCCCC3)nc2c1, the AC50 [1] was 4.47 µM [rising, single point].

With O=C(/C=C/c1ccccc1Cl)c1ccc(O)cc1 the AC50 [1] was 15.8 µM [falling, single point].

For Cc1ccc(/C=C2\SC(=S)N(CCC(=O)NCCCN3CCOCC3)C2=O)cc1, the AC50 [1] was 35.5 µM [falling, single point].

In the case of COc1cccc(N=Nc2ccc3ccccc3c2O)c1, the AC50 [1] is reported as 0.562 µM [rising, full curve, poor fit].

For CCn1cnc2sc(C)c(C)c2c1=O, the AC50 [1] was 16.4 µM [rising, single point] and the AC50 [2] was 14.6 µM [falling, single point].

For Cc1ccc2oc(/N=C(\N)NC(=O)C3CC3)nc2c1, the AC50 [1] was 7.08 µM [falling, partial curve].

With COc1ccccc1/C=C1\SC(=S)N(CCC(=O)N2CCCCC2CCO)C1=O (stereo not drawn) the AC50 [1] was 6.31 µM [falling, full curve, poor fit].

With Cn1c(=O)c2c(nc(CN3CCN(CCO)CC3)n2Cc2cccc3ccccc23)n(C)c1=O the AC50 [1] was 0.461 µM [rising, partial curve, poor fit].

With CCc1ccc(CCC(=O)Nc2sc3c(c2C#N)CCCC3)o1 the AC50 [1] was 3.26 µM [rising, full curve] and the AC50 [2] was 20.6 µM [falling, partial curve].

In the case of O=C(O)CC(NNC(=O)c1ccccc1)C(=O)Nc1cccc([N+](=O)[O-])c1 (stereo not drawn), the AC50 [1] is reported as 10 µM [falling, partial curve].
